The values below come from PMC6978386.

The chains behind the UniProt entries cited, without tags or fusion partners.
UniProt P46934: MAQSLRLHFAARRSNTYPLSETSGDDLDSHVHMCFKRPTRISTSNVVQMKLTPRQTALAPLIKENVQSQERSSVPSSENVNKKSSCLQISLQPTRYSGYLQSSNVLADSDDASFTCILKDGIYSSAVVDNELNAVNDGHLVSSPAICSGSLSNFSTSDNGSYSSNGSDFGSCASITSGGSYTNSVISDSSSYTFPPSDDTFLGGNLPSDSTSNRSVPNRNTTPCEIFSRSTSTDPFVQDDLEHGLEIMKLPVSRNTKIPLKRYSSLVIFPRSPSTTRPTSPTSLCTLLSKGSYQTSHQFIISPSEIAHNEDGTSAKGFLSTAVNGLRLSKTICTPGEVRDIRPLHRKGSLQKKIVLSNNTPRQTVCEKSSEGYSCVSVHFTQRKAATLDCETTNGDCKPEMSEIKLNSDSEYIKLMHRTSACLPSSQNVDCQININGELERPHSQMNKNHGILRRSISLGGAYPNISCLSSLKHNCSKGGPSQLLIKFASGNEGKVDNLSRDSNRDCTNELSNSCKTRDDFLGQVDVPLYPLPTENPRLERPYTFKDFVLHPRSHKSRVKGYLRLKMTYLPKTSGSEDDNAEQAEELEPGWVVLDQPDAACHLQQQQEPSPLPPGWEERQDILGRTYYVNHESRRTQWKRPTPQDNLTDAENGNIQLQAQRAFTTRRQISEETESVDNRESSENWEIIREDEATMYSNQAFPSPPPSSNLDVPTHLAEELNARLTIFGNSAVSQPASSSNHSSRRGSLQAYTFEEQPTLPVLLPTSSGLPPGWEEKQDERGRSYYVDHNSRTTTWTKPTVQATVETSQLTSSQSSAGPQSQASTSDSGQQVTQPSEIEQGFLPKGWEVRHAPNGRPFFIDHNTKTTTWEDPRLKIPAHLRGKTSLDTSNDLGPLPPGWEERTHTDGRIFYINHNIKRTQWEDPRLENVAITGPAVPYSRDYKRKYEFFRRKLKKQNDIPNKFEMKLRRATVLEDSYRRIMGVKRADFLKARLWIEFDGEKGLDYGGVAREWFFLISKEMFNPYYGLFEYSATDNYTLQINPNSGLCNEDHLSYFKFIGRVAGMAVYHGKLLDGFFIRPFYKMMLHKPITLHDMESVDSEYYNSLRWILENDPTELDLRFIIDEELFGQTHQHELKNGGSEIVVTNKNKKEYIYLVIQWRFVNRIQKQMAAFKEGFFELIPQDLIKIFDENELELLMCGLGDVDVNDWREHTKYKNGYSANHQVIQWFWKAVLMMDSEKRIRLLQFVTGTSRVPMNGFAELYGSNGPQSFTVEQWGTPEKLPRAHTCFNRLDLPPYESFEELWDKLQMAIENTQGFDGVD
UniProt P21796: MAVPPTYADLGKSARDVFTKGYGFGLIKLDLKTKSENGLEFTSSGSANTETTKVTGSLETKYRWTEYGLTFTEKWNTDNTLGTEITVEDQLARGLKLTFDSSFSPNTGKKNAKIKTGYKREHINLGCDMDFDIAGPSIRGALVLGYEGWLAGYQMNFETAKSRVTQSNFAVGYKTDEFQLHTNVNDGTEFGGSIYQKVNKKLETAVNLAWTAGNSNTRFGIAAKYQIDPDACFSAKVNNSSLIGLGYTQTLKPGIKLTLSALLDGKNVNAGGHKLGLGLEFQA

These are yes or no findings as the source states them, for the method shown. In cells and extracts the contact can be indirect. Some entries that bind do so weakly or less than the wild type.

This experiment concerns the target Neuronal precursor cell-expressed developmentally downregulated 4 (Nedd4), endogenous (human (endogenous in A375)) (UniProt P46934). The experiment is described as follows: co-IP; endogenous proteins, A375 whole-cell lysate (1% NP40 lysis buffer, 300 mM NaCl); IP with anti-Nedd4 or control IgG, immunoblot; cells treated with DMSO or erastin (5 µM, 4 h), then MG132 for 4 h.

On to “voltage-dependent anion channel 1 (VDAC1), endogenous (from UniProt P21796 1-283)”, for which the binding result was “binds”.
